In article PMC6376727:
Results are given in words; binding and its absence hold for the method and conditions named. For some assays here: Binding seen in cells or lysates may run through a third protein. Some binding calls cover weakened binding; strength is not graded here.

The chains behind the UniProt entries cited, without tags or fusion partners. Residues count along the entry.
UniProt P63165, residues 1-97: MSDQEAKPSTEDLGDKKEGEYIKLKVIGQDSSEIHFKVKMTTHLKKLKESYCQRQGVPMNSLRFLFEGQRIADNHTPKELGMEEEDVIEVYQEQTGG
UniProt P63166, residues 1-97: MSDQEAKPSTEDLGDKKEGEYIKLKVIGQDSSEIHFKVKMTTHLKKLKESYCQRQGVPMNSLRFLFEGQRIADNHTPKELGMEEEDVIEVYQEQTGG
UniProt Q5I0H3, residues 1-97: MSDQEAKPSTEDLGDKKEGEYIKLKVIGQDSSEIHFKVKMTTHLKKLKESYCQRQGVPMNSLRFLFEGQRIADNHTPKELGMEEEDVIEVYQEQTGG
UniProt Q01105: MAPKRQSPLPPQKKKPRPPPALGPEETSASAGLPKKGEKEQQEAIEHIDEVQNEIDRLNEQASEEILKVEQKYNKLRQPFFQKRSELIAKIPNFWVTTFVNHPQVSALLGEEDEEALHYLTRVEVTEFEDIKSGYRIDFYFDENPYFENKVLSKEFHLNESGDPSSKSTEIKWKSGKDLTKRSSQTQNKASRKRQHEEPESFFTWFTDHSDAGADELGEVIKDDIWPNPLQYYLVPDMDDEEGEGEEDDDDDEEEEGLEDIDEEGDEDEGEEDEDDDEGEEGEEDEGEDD
UniProt Q9EQU5: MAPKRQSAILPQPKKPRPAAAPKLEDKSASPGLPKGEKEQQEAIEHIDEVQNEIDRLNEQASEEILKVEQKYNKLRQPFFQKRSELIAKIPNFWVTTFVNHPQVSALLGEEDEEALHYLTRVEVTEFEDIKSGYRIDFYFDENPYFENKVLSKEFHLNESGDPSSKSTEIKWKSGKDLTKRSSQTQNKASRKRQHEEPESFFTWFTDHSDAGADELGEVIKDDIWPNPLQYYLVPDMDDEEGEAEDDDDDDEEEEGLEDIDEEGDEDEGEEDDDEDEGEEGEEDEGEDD
UniProt Q63945: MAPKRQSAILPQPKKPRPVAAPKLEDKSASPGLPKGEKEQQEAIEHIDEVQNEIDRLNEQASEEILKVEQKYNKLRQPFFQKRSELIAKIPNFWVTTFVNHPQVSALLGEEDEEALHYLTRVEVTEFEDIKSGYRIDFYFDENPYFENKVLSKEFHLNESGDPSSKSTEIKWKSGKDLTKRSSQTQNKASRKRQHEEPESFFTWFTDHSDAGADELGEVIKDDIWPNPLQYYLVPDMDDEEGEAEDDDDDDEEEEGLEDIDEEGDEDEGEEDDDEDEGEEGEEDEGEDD

Legend:
[1] = target: endogenous SUMO-1 (HEK-293T cells) (human (endogenous in HEK-293T)) (UniProt P63165); experiment: co-IP; HEK-293T co-transfected with Flag-SET-WT or Flag-SET-K68R and UBC9 for 48 h, endogenous SUMO-1; precipitated with anti-SUMO-1, blotted with anti-SET
[2] = target: endogenous SUMO-1 (HEK-293T cells) (human (endogenous in HEK-293T)) (UniProt P63165); experiment: western blot of cell lysate (SUMO-1-conjugated band of Flag-SET); HEK-293T transfected with Flag-SET WT or K14R, K36R, K39R, K68R in the presence of UBC9; lysate blotted with anti-Flag; no precipitation
[3] = target: His-SUMO-1 (UniProt P63165); experiment: co-IP; HEK-293T co-transfected with Flag-SET (WT or K68R), His-SUMO-1 and UBC9 for 48 h; RIPA lysate; precipitated with anti-SUMO-1, blotted with anti-Flag; the band is at 52 kDa (covalent SET-SUMO-1 conjugate)
[4] = target: endogenous SUMO-1 (mouse hippocampus) (mouse (endogenous in hippocampus)) (UniProt P63166); experiment: co-IP; hippocampal homogenates of 129 or C57 control mice and of 3xTg AD, h-Tau and APP/PS1 mice; precipitated with anti-SUMO-1, blotted with anti-SET; read as SUMOylation of SET
[5] = target: endogenous SUMO-1 (rat primary hippocampal neurons) (rat (endogenous in primary hippocampal neurons)) (UniProt Q5I0H3); experiment: co-IP; rat primary hippocampal neurons treated with the indicated concentrations of Abeta oligomers; lysate precipitated with anti-SUMO-1, blotted with anti-SET; band at 52 kDa

Flag-SET-WT (from UniProt Q01105 1-290)
binding [1]: binds | binding [2]: binds | binding [3]: binds

endogenous SET (mouse hippocampus) (from UniProt Q9EQU5 1-289)
binding [4]: binds

endogenous SET (rat primary hippocampal neurons) (from UniProt Q63945 1-289)
binding [5]: binds
